# Reference: the supplement of paper PMC8728848
# The list shows a part of the results.
# B1: FGF1 (Homo sapiens), P05230 (protein)
# chain: MAEGEITTFTALTEKFNLPPGNYKKPKLLYSNGGHFLRILPDGTVDGTRDRSDQHIQLQLSAESVGEVYIKSTETGQYLAMTDGLLYGSQTPNEECLFLERLEENHYNTYISKHAEKNWFVGLKKNGSCKRGPRTHYGQAILFLPLPASSED
# Assays:
# Test in all cases: glycan array binding signal (z-score within array); higher = stronger binding
# Settings in all cases: glycan notation: IUPAC condensed, linker removed
# [1] = target: Gal(b1-4)GlcNAc(b1-2)Man(a1-6)[GlcNAc(b1-2)Man(a1-3)]Man(b1-4)GlcNAc(b1-4)GlcNAc
# In short: (§1)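 Arrays were curated from the Consortium for Functional Glycomics database, 3228 in total, and kept only where the protein sequence was available. Binding is expressed as a within-array Z-score. This score was averaged across arrays of the same protein sequence at different concentrations or buffers and across linkers, and negative values can be read as non-binding.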
# [2] = target: Gal(b1-4)GlcNAc(b1-2)Man(a1-6)[Man(a1-3)]Man(b1-4)GlcNAc(b1-4)GlcNAc
# In short: as §1
# [3] = target: Gal(b1-4)GlcNAc(b1-2)[Gal(b1-4)GlcNAc(b1-4)]Man(a1-3)[Gal(b1-4)GlcNAc(b1-2)Man(a1-6)]Man(b1-4)GlcNAc(b1-4)GlcNAc
# In short: as §1
# [4] = target: Gal(b1-4)GlcNAc(b1-2)[Gal(b1-4)GlcNAc(b1-4)]Man(a1-3)[Gal(b1-4)GlcNAc(b1-2)[Gal(b1-4)GlcNAc(b1-6)]Man(a1-6)]Man(b1-4)GlcNAc(b1-4)GlcNAc
# In short: as §1
# [5] = target: Gal(b1-4)GlcNAc(b1-2)[Gal(b1-4)GlcNAc(b1-4)]Man(a1-3)[GlcNAc(b1-4)][Gal(b1-4)GlcNAc(b1-2)Man(a1-6)]Man(b1-4)GlcNAc(b1-4)GlcNAc
# In short: as §1
# [6] = target: Gal(b1-4)GlcNAc(b1-2)[Gal(b1-4)GlcNAc(b1-4)]Man(a1-3)[GlcNAc(b1-4)][Gal(b1-4)GlcNAc(b1-2)[Gal(b1-4)GlcNAc(b1-6)]Man(a1-6)]Man(b1-4)GlcNAc(b1-4)GlcNAc
# In short: as §1
# [7] = target: Gal(b1-4)GlcNAc(b1-2)[Gal(b1-4)GlcNAc(b1-6)]Man(a1-6)[Gal(b1-4)GlcNAc(b1-2)Man(a1-3)]Man(b1-4)GlcNAc(b1-4)GlcNAc
# In short: as §1
# [8] = target: Gal(b1-4)GlcNAc(b1-2)[Gal(b1-4)GlcNAc(b1-6)]Man(a1-6)[Gal(b1-4)GlcNAc(b1-2)Man(a1-3)]Man(b1-4)GlcNAc(b1-4)[Fuc(a1-6)]GlcNAc
# In short: as §1
# [9] = target: Gal(b1-4)GlcNAc(b1-2)[Gal(b1-4)GlcNAc(b1-6)]Man(a1-6)[GlcNAc(b1-4)][Gal(b1-4)GlcNAc(b1-2)Man(a1-3)]Man(b1-4)GlcNAc(b1-4)GlcNAc
# In short: as §1
# [10] = target: Gal(b1-4)GlcNAc(b1-2)[Gal(b1-4)GlcNAc(b1-6)]Man(a1-6)[GlcNAc(b1-4)][Gal(b1-4)GlcNAc(b1-2)[Gal(b1-4)GlcNAc(b1-4)]Man(a1-3)]Man(b1-4)GlcNAc(b1-4)[Fuc(a1-6)]GlcNAc
# In short: as §1
# [11] = target: Gal(b1-4)GlcNAc(b1-3)Gal(b1-3)GalNAc
# In short: as §1
# [12] = target: Gal(b1-4)GlcNAc(b1-3)Gal(b1-3)GlcNAc
# In short: as §1
# [13] = target: Gal(b1-4)GlcNAc(b1-3)Gal(b1-4)Glc
# In short: as §1
# [14] = target: Gal(b1-4)GlcNAc(b1-3)Gal(b1-4)GlcNAc
# In short: as §1
# [15] = target: Gal(b1-4)GlcNAc(b1-3)Gal(b1-4)GlcNAc(b1-2)Man(a1-3)[Gal(b1-4)GlcNAc(b1-3)Gal(b1-4)GlcNAc(b1-2)Man(a1-6)]Man(b1-4)GlcNAc(b1-4)GlcNAc
# In short: as §1
# [16] = target: Gal(b1-4)GlcNAc(b1-3)Gal(b1-4)GlcNAc(b1-2)Man(a1-3)[Gal(b1-4)GlcNAc(b1-3)Gal(b1-4)GlcNAc(b1-2)Man(a1-6)]Man(b1-4)GlcNAc(b1-4)[Fuc(a1-6)]GlcNAc
# In short: as §1
# [17] = target: Gal(b1-4)GlcNAc(b1-3)Gal(b1-4)GlcNAc(b1-2)[Gal(b1-4)GlcNAc(b1-3)Gal(b1-4)GlcNAc(b1-6)]Man(a1-6)[Gal(b1-4)GlcNAc(b1-3)Gal(b1-4)GlcNAc(b1-2)Man(a1-3)]Man(b1-4)GlcNAc(b1-4)GlcNAc
# In short: as §1
# [18] = target: Gal(b1-4)GlcNAc(b1-3)Gal(b1-4)GlcNAc(b1-2)[Gal(b1-4)GlcNAc(b1-3)Gal(b1-4)GlcNAc(b1-6)]Man(a1-6)[Gal(b1-4)GlcNAc(b1-3)Gal(b1-4)GlcNAc(b1-2)Man(a1-3)]Man(b1-4)GlcNAc(b1-4)[Fuc(a1-6)]GlcNAc
# In short: as §1
# [19] = target: Gal(b1-4)GlcNAc(b1-3)Gal(b1-4)GlcNAc(b1-3)Gal(b1-4)GlcNAc
# In short: as §1
# [20] = target: Gal(b1-4)GlcNAc(b1-3)Gal(b1-4)GlcNAc(b1-3)Gal(b1-4)GlcNAc(b1-2)Man(a1-3)[Gal(b1-4)GlcNAc(b1-3)Gal(b1-4)GlcNAc(b1-3)Gal(b1-4)GlcNAc(b1-2)Man(a1-6)]Man(b1-4)GlcNAc(b1-4)GlcNAc
# In short: as §1
# [21] = target: Gal(b1-4)GlcNAc(b1-3)Gal(b1-4)GlcNAc(b1-3)Gal(b1-4)GlcNAc(b1-2)Man(a1-3)[Gal(b1-4)GlcNAc(b1-3)Gal(b1-4)GlcNAc(b1-3)Gal(b1-4)GlcNAc(b1-2)Man(a1-6)]Man(b1-4)GlcNAc(b1-4)[Fuc(a1-6)]GlcNAc
# In short: as §1
# [22] = target: Gal(b1-4)GlcNAc(b1-3)Gal(b1-4)GlcNAc(b1-3)Gal(b1-4)GlcNAc(b1-2)[Gal(b1-4)GlcNAc(b1-3)Gal(b1-4)GlcNAc(b1-3)Gal(b1-4)GlcNAc(b1-6)]Man(a1-6)[Gal(b1-4)GlcNAc(b1-3)Gal(b1-4)GlcNAc(b1-3)Gal(b1-4)GlcNAc(b1-2)Man(a1-3)]Man(b1-4)GlcNAc(b1-4)[Fuc(a1-6)]GlcNAc
# In short: as §1
binder,measurement,setting,value
B1,glycan array binding signal (z-score),[1],-0.288
same,glycan array binding signal (z-score),[2],-0.748
same,glycan array binding signal (z-score),[3],-0.616
same,glycan array binding signal (z-score),[4],-1.16
same,glycan array binding signal (z-score),[5],-0.296
same,glycan array binding signal (z-score),[6],-0.17
same,glycan array binding signal (z-score),[7],-0.741
same,glycan array binding signal (z-score),[8],-0.654
same,glycan array binding signal (z-score),[9],-0.657
same,glycan array binding signal (z-score),[10],-0.759
same,glycan array binding signal (z-score),[11],-0.589
same,glycan array binding signal (z-score),[12],-0.56
same,glycan array binding signal (z-score),[13],-0.542
same,glycan array binding signal (z-score),[14],-0.757
same,glycan array binding signal (z-score),[15],0.247
same,glycan array binding signal (z-score),[16],0.402
same,glycan array binding signal (z-score),[17],1.88
same,glycan array binding signal (z-score),[18],-0.474
same,glycan array binding signal (z-score),[19],-0.647
same,glycan array binding signal (z-score),[20],0.706
same,glycan array binding signal (z-score),[21],2.98
same,glycan array binding signal (z-score),[22],-0.225

# Two entries from above, reformatted.
binder	measurement	setting	value
B1	glycan array binding signal (z-score)	[14]	-0.757
same	glycan array binding signal (z-score)	[20]	0.706
